{"sequences": {"note": "Chains of the proteins cited; added tags and fusions are not shown. Lines headed by an entry give the natural chain unless they say otherwise; changes in a name come on top.", "UniProt P51450": "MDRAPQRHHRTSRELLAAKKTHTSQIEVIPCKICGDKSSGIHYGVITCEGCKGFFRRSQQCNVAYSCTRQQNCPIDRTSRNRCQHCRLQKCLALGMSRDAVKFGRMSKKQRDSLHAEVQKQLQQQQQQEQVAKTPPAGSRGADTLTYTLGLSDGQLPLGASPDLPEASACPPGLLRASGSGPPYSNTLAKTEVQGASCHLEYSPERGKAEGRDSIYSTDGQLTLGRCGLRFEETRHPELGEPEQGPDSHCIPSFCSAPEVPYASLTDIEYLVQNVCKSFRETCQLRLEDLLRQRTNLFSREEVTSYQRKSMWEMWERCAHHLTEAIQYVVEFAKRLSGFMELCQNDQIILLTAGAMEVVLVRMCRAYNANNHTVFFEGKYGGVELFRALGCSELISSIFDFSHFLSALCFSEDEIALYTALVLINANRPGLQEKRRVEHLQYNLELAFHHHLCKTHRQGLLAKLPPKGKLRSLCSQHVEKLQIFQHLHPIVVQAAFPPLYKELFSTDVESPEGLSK"}, "source": "PubChem BioAssay AID2551", "about": "(National Center for Advancing Translational Sciences (NCATS), 2010)", "note": "In all, about 310,000 compounds went through this assay and about 17,000 (5.5%) were called active. The shares of active, inactive and inconclusive entries below differ from those in the screen. Calls follow the shape of the dose curve; as a rule, active = well fitted inhibition curve with a large enough effect; inconclusive = small, poorly fitted or top-dose-only effect, or effect the other way; inactive = no such curve, though single readings can be large or run the other way. Where the call is inconclusive, the potency comes from a doubtful curve fit. Potency is read from the fitted curve at half-maximal effect.", "data": [{"target": "Nuclear receptor ROR-gamma (Mus musculus) (UniProt P51450)", "test": "qHTS for inhibitors of ROR gamma transcriptional activity; also: nearly all actives have a fitted effect of over 60% in size", "settings": "Drosophila S2 Gal4-RORgamma UAS-luciferase reporter, 20 h; series mostly up to 53.6 µM", "method_in_brief": "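A Gal4/UAS one-hybrid system in insect cells: metallothionein-promoter Gal4–ROR gamma fusion plus Photinus luciferase reporter. Copper sulfate 700 uM final, 20 hr ambient incubation, luminescent detection after 10 min with reagent.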", "values": [{"smiles": "CC1=NN(C(=O)c2ccccc2F)C(O)(c2ccc(Cl)cc2)C1", "note": "(centres undefined)", "Potency": "active: 5.62 µM"}, {"smiles": "CC1Cc2ccccc2N1C(=O)c1ccc2nccnc2c1", "note": "(centres undefined)", "Potency": "inactive"}, {"smiles": "COc1ccc(NS(=O)(=O)c2cccc(NC(=O)CCC(=O)c3cccs3)c2)cc1", "Potency": "inconclusive: 12.6 µM [activator, single point]"}, {"smiles": "NC(=O)c1ccsc1NC(=O)CSc1ccccc1F", "Potency": "inconclusive: 6.31 µM [activator, single point]"}, {"smiles": "Cc1ccc2cc3cc(C(=O)NCCCN4CCCCCC4)oc3nc2c1", "Potency": "inconclusive: 35.5 µM [activator, single point]"}, {"smiles": "Cc1c(-c2ccc(F)cc2)nc(N)c(C#N)c1-c1cccnc1", "Potency": "inactive"}, {"smiles": "COc1ccc2c(c1)CCc1c(C(=O)NC3CCCCC3)noc1-2", "Potency": "inconclusive: 0.447 µM [activator, partial curve, poor fit]"}, {"smiles": "CCN1C(=O)C(O)(CC(=O)C(C)(C)C)c2cc(Br)ccc21", "note": "(centres undefined)", "Potency": "inactive"}, {"smiles": "CC(C)N(Cc1nc(-c2ccccc2)no1)C(=O)COc1ccccc1", "Potency": "inconclusive: 15.8 µM [inhibitor, single point]"}, {"smiles": "Cc1cccc(NC(=O)c2ccc3c(=O)n(CC4CCCO4)c(=S)[nH]c3c2)c1", "note": "(centres undefined)", "Potency": "inconclusive: 20 µM [inhibitor, single point]"}, {"smiles": "Cc1ccc(NC(=O)c2cccc(S(=O)(=O)N3CCCCC3)c2)cc1", "Potency": "inconclusive: 12.6 µM [activator, single point]"}, {"smiles": "Cn1c(SCC(=O)c2ccc3c(c2)OCCO3)nnc1C1CC1", "Potency": "inactive"}, {"smiles": "CC(C)(C)c1ccc(/C=N/NC(=O)c2ccccn2)cc1", "Potency": "active: 10 µM"}, {"smiles": "CC(C)CC(C(=O)Nc1ccccc1)N1C(=O)C2C3C=CC(C3)C2C1=O", "note": "(centres undefined)", "Potency": "inactive"}, {"smiles": "CCNC(=O)NC(=O)C(C)OC(=O)CCCSc1nc2ccccc2s1", "note": "(centres undefined)", "Potency": "inconclusive: 12.6 µM [inhibitor, partial curve]"}, {"smiles": "O=C(CN1C(=O)c2ccc([N+](=O)[O-])cc2C1=O)Nc1nccs1", "Potency": "inactive"}, {"smiles": "CC(C)N1CCN(Cc2cccn2-c2nccs2)CC1CCO", "note": "(centres undefined)", "Potency": "inconclusive: 35.5 µM [activator, single point]"}, {"smiles": "Nc1ccccc1-c1nnn(CC(=O)N2CCCc3ccccc32)n1", "Potency": "inconclusive: 20 µM [activator, single point]"}, {"smiles": "COc1ccc(CNc2nc(-c3ccccc3)nn2C(=O)c2ccc([N+](=O)[O-])cc2)cc1", "Potency": "inconclusive: 1.12 µM [activator, partial curve]"}, {"smiles": "Cc1ccc(-n2nnnc2CNC(=O)c2ccc(Br)o2)cc1C", "Potency": "inactive"}, {"smiles": "Cc1cc(C)cc(-n2nnc(C(=O)NCc3ccccc3Cl)c2N)c1", "Potency": "inconclusive: 10 µM [activator, partial curve]"}, {"smiles": "O=C1C(Cc2ccccc2)C(c2ccccc2)N1c1ccccc1", "note": "(centres undefined)", "Potency": "inconclusive: 20 µM [activator, single point]"}, {"smiles": "CCOc1cc(C(=S)N2CCOCC2)ccc1OS(=O)(=O)c1ccc(NC(C)=O)cc1", "Potency": "inconclusive: 11.2 µM [activator, partial curve]"}, {"smiles": "CC(=O)N(/N=C1\\Sc2ccccc2C1=O)c1ccccc1C", "Potency": "inconclusive: 6.31 µM [inhibitor, partial curve]"}, {"smiles": "O=[N+]([O-])c1ccccc1-c1cc(-c2cc(Cl)ccc2O)n[nH]1", "Potency": "active: 15.8 µM"}, {"smiles": "O=C(CN1CC(c2ccccc2)CC1=O)N/N=C/c1cc(Br)ccc1O", "note": "(centres undefined)", "Potency": "active: 4.47 µM"}, {"smiles": "O=C(NC(=S)N1CCN(c2nc(-c3ccccc3)cs2)CC1)c1cncc(Br)c1", "Potency": "active: 0.224 µM"}, {"smiles": "CCCN1CCn2c3c(c4cc(Br)ccc42)CCCC31", "note": "(centres undefined)", "Potency": "inactive"}, {"smiles": "COc1ccc(N2CCN(C(=O)CN(c3cccc(Br)c3)S(C)(=O)=O)CC2)cc1", "Potency": "inconclusive: 28.2 µM [activator, single point]"}, {"smiles": "COC(=O)[C@@]1(Cc2ccccc2)[C@H]2c3cc(C(=O)N(C)C)n(Cc4ccc(S(C)(=O)=O)cc4)c3C[C@H]2CN1C(=O)c1ccccc1", "Potency": "inconclusive: 35.5 µM [activator, single point]"}, {"smiles": "Cc1ccc(C)c(S(=O)(=O)N(C(=O)c2ccncc2)c2ccc(OC(=O)c3ccncc3)cc2)c1", "Potency": "inconclusive: 22.4 µM [activator, single point]"}, {"smiles": "COc1ccc(OC)c(-c2csc(NC(=O)C3=NN(c4ccccc4)C(=O)CC3)n2)c1", "Potency": "inactive"}, {"smiles": "Cc1ccc(OC(C)C(=O)Nc2ccc3c(c2)n(C)c(=O)n3C)c(C)c1", "note": "(centres undefined)", "Potency": "inconclusive: 15.8 µM [activator, single point]"}, {"smiles": "Fc1ccccc1-n1c(-c2ccc3ccccc3n2)n[nH]c1=S", "Potency": "active: 1.41 µM"}, {"smiles": "CCCCCCn1nc(C(=O)Nc2nc3c(s2)CCCC3)c2ccccc2c1=O", "Potency": "active: 10 µM"}, {"smiles": "Cc1cccc(CN2C(=O)N/C(=C/c3cc(C)n(-c4ccccn4)c3C)C2=O)c1", "Potency": "inconclusive: 22.4 µM [activator, single point]"}, {"smiles": "COc1ccccc1C1Nc2cccc3cccc(c23)N1", "Potency": "inconclusive: 0.355 µM [inhibitor, full curve, poor fit]"}, {"smiles": "Cc1ccc(C)c(N2CCN(C(=O)CCCCCn3c(=S)[nH]c4ccc(N5CCOCC5)cc4c3=O)CC2)c1", "Potency": "active: 10 µM"}, {"smiles": "CC(C)(C)NC(=O)CSc1nc(-c2ccc(F)cc2)cs1", "Potency": "inactive"}, {"smiles": "CCCCNC1c2ccccc2C(=O)N1Cc1ccccc1", "note": "(centres undefined)", "Potency": "inconclusive: 10 µM [activator, partial curve]"}, {"smiles": "Cc1ccc2c(c1)sc(=NC(=O)c1cccs1)n2C", "Potency": "active: 8.91 µM"}, {"smiles": "COc1ccc(CC(=O)n2c(CC#N)nc3ccccc32)cc1OC", "Potency": "active: 11.2 µM"}, {"smiles": "O=C(O)c1ccc(-c2ncc[nH]2)cc1", "Potency": "inconclusive: 0.501 µM [activator, single point]"}, {"smiles": "O=c1cc(CSc2ccccn2)c2ccccc2[nH]1", "Potency": "inactive"}, {"smiles": "OC(CN1CCOCC1)(c1ccccc1)c1ccccn1", "note": "(centres undefined)", "Potency": "inactive"}, {"smiles": "COc1ccc(-n2c(=O)c3c4c(sc3n3c(=S)[nH]nc23)CCC4)cc1", "Potency": "active: 11.2 µM"}, {"smiles": "Cc1ccc(-c2cc(C(=O)N3CCCC3)no2)cc1", "Potency": "active: 11.2 µM"}, {"smiles": "C=C(C)Cn1c(CCCNC(=O)CC)nc2ccccc21", "Potency": "inactive"}, {"smiles": "Cc1cc(C)n(C(=O)C23CC4CC(CC(C4)C2)C3)n1", "Potency": "inconclusive: 8.91 µM [inhibitor, partial curve, poor fit]"}]}]}
